# US20150004636A1, “NEURONAL BIOSENSOR FOR DETECTION OF TOXINS” (priority 2011, published 2015)
# Where two headings read alike, the source gives them in different places. Some results were stated once for a whole list of compounds, not compound by compound. At least one structure is not confirmed: it was looked up by name or label, or the drawing left a doubt.
# Tested on: dorsal root ganglia (DRG) neurons
# Format: cell-based, chick
# Details: all cells averaged
# Description: The eggs were incubated for 10 days before dissection in a dark egg incubator with motion at a dry temperature of 86-100° F. and wet temperature of 84-86° F. From the ventral side, the spines of the embryos were exposed, the kidneys were removed one at a time under higher dissecting power carefully so as not to remove the nerve chains situated just below the kidney along the ventral side of the spinal cord. The DRGs were each dissected from the area between the bottom of the ribs and the posterior end of the embryo, placed in a tissue culture dish containing F12 media. DRGs from 12 embryos were transferred with a fire-polished Louis Pasteur pipette to a sterile 15 ml tube. After the DRGs settled to the bottom of the tube, a pipette was used to carefully remove the F12 media, avoiding removal of any DRGs. Ten mLs of 5% trypsin were added to the tube with DRGs, mixed, and incubated for 30 minutes in a 37° C. water bath. […] A small amount of the solution was transferred to a hemocytometer and the single cells were counted. […]
# The coverslip containing the neurons was placed in a perfusion apparatus onto an Olympus IX70 microscope equipped with a 20× fluorescence objective, a Mercury lamp and filter sets that optimized the Fura-2 excitation ([…]) and emission wavelengths (510 nm). […]
structure (smiles),measurement,setting,value
N[C@@H](CCC(=O)O)C(=O)O [glutamate],mean intracellular Ca2+ concentration during stimulation,500 μM glutamate,less than 200 nM
same,mean intracellular Ca2+ concentration during stimulation,1 mM glutamate,less than 200 nM
